These are yes or no findings as the source states them, for the method shown. Binding seen in cells or lysates may run through a third protein. Some results given as binding are weak or reduced against the parent protein; the word gives no strength. Tags and fused reporters may be left off the sequences shown.

Protein sequences, listed by entry. Tags and fused reporters are not part of them.
UniProt P0A6B7: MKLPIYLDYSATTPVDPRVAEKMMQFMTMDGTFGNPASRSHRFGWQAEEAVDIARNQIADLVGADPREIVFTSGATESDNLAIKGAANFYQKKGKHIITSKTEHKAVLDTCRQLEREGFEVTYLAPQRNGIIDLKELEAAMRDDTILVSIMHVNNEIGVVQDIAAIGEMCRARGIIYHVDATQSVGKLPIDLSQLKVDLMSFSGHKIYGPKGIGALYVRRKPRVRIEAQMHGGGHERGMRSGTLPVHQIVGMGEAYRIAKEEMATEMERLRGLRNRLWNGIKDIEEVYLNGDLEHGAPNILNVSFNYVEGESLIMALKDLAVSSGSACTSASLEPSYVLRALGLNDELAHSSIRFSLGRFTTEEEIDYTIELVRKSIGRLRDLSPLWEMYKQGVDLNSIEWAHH

Assay [1] has as its target Strep tagged IscS (E. coli), P0A6B7. Briefly: pull-down; Cell extracts of Strep-IscS and GST-DptC or GST-DptE mixed in equal volume, Streptactin resin, Buffer S (25 mM Hepes pH7.6, 100 mM KCl, 10% glycerol), 1 hour, eluted with 2.5 mM desthiobiotin; Western blot against GST. The conditions noted are these: remark: other sources report otherwise. (In general: Immunoblotting shows a protein as a band on a membrane.)

The target in assay [2] is Strep tagged IscS (E. coli) (UniProt P0A6B7). The description is as above.

B1: GST tagged DptC, E2D677 1-544 (protein)
chain: MSKLVQAYDLAEYEDFINQEQFAGRPLAEYVAEVQRIYCADKRPWVIGYSGGKDSSAVITLVYLALLGLPPEMRSKDVFIVSSDTLVETPVVVDLIKKTMLQIEAGAKRNGLPITQHAVTPKTNETFWVNLLGKGYPAPTRSFRWCTERMKINPVSDFIKDKVSQFDEVIVVLGSRSSESASRAQVIAKHKIDGSRLARHTTLANAFIYTPIDTWDVEDVWKLLRGAFRYAPEDIDEWESPWGGNNRPLWTLYMDSSAQGECPLVIDESTPSCGNSRFGCWTCTVVTKDKAMESLIKNGEEWMSPLLKYRDLLAFTTDPANKDTYRNYKRRTGKVSYQYAKDGEDRSAERKHVPGPYWLKYRQQWLKDLLEIERDLNAQGHTITLITQPELHAIRQEWLKDPNEPDWHDTLPEIYREVYQQDLNWVVDDQSRFDASDADLLAQITQGFDVVPEMVMKLIELETSMEGLSRRQGIFDKLGTILKQDWGSLEEIQQQQATLQKRNDRDIHQDEVEKLEAELQTLQRRIIDAGESSVLIDEENERAH
In the case of B1, the binding entry in assay [1] is given as “binds”.

B2: GST tagged DptE (protein, UniProt E2D679 1-117)
chain: MLPNRMVLSRQTEDQLKKLKGYTGITPNVAARLAFFRSVESEFRYSPERDSKKLDGSLVLDKITWLGETLQATELVLKMLYPQLEQKILIKAWAAHVDDGIAALRNYRSLKDFSKNI
For the molecule B2, the binding entry in assay [2] is “binds”.

(Values after PMC3519819.)
